Experiment: general procedure: solution-phase peptide synthesis; EDC/HOBt; PyBOP/diisopropylethylamine
Settings: late stage modification step

Substance	step yield (tetrahydrochloride)	also measured
3-Amino-N^2-{[(8S,11S,14S)-14-amino-11-(3-aminopropyl)-17-hydroxy-10,13-dioxo-9,12-diazatricyclo[14.3.1.1^2,6]henicosa-1(20),2(21),3,5,16,18-hexaen-8-yl]acetyl}-N-(2,5-diaminopentyl)-L-alaninamide tetrahydrochloride	99% of theory	
(3S)-3-Amino-6-[(N^2-{[(8S,11S,14S)-14-amino-11-(3-aminopropyl)-17-hydroxy-10,13-dioxo-9,12-diazatricyclo[14.3.1.1^2,6]henicosa-1(20), 2(21), 3,5,16,18-hexaen-8-yl]acetyl}-L-ornithyl)amino]-N-[(2S)-2,5-diaminopentyl]hexanamide hexahydrochloride		step yield (hexahydrochloride): 99% of theory
N-[3-({[(8S 11S, 14S)-14-Amino-11-(3-aminopropyl)-17-hydroxy-10,13-dioxo-9,12-diazatricyclo[14.3.1.1^2,6]henicosa-1(20), 2(21), 3,5,16,18-hexaen-8-yl]acetyl}amino)-2-hydroxypropyl]-L-ornithinamide tetrahydrochloride	73% of theory	
N^2-{[(8S,11S,14S)-14-Amino-11-(3-aminopropyl)-17-hydroxy-10,13-dioxo-9,12-diazatricyclo[14.3.1.1^2,6]henicosa-1(20),2(21), 3,5,16,18-hexaen-8-yl]acetyl}-N-[(5S)-5-amino-6-hydroxyhexyl]-L-ornithinamide tetrahydrochloride	97% of theory	
N^2-{[(8S,11S,14S)-14-Amino-11-(3-aminopropyl)-17-hydroxy-10,13-dioxo-9,12-diazatricyclo[14.3.1.1^2,6]henicosa-1(20), 2(21),3,5,5,16,18-hexaen-8-yl]acetyl}-N-(2-aminoethyl)-L-ornithinamide tetrahydrochloride	93% of theory	
N^3-{[(8S,11S,14S)-14-Amino-11-(3-aminopropyl)-17-hydroxy-10,13-dioxo-9,12-diazatricyclo[14.3.1.1^2,6]henicosa-1(20),2(21), 3,5,16,18-hexaen-8-yl]acetyl}-N-[(2S)-2,5-diaminopentyl]-beta-alaninamide tetrahydrochloride	99% of theory	
tert-Butyl {3-[(8S,11S,14S)-14-[(tert-butoxycarbonyl)amino]-17-hydroxy-8-(2-{[2-hydroxy-3-(L-ornithylamino)propyl]amino}-2-oxoethyl)-10,13-dioxo-9,12-diazatricyclo[14.3.1.1^2,6]henicosa-1(20), 2(21),3,5,16,18-hexaen-11-yl]propyl}carbamate		step yield (hydrochloride): 99% of theory

Reference: US20080306040A1 (priority 2005, published 2008)
